Laboratory results: PubChem BioAssay AID1053208 (Peter MacCallum Cancer Centre, 2014)
Test: 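Find knock-downs that sensitise mouse osteosarcoma cells to doxorubicin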 (primary screen). System: mouse osteosarcoma cells, early-passage culture from an engineered mouse model of fibroblastic bone tumour. Reagent: siRNA pool against mouse genes, 40 nM. Time to read-out: about 120 h (48 h before drug, then 72 h with drug). Treatment: doxorubicin 100 nM for 72 h, roughly 30-40% inhibitory dose. Read-out: 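Luminescent ATP signal taken as viability with or without 100 nM doxorubicin for 72 h; mean of two wells set against non-targeting siRNA and turned into robust z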. Reading the numbers: viability z-score with doxorubicin: higher = more viable cells under doxorubicin; viability z-score without drug: higher = more viable cells with knock-down alone. Call rule: 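a pool counts as active when its viability z-score with doxorubicin is -2 or below and its z-score without drug lies between -2 and 2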.
In all, the deposit lists about 17,000 reagents; below is a random part of them. Of all reagents, 788 (4.7%) were called active. 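Calls rest on z-score classes alone; an extra cut-off of viability at most 70% of control was not applied to them.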 Further read-outs or replicates are left out here.

Slfn8 [SID152319866] scored combined z-score class no change with or without drug; viability z-score with doxorubicin -1.12; viability z-score without drug -1.85; inactive.
With knock-down of Tmem97 [SID152280924], the record shows combined z-score class high cell count without drug only; viability z-score with doxorubicin -0.45; viability z-score without drug 2.19; inactive.
After knock-down of Ceacam19 [SID152309404], the record shows combined z-score class no change with or without drug; viability z-score with doxorubicin -1.12; viability z-score without drug -1.18; inactive.
Silencing of Ehd1 [SID152261086] resulted in: combined z-score class no change with or without drug; viability z-score with doxorubicin -0.67; viability z-score without drug -0.51; inactive.
Against Gja4 [SID152281615], the values are combined z-score class no change with or without drug; viability z-score with doxorubicin 0; viability z-score without drug -0.17; inactive.
Smagp [SID152334261] scored combined z-score class high cell count without drug only; viability z-score with doxorubicin 1.12; viability z-score without drug 2.02; inactive.
Sdhb [SID152280278] gave combined z-score class no change with or without drug; viability z-score with doxorubicin -0.67; viability z-score without drug 0.51; inactive.
After knock-down of Ccar1 [SID152287341], the screen gave combined z-score class no change with or without drug; viability z-score with doxorubicin -0.9; viability z-score without drug 0.51; inactive.
After knock-down of Sorl1 [SID152290783], the screen gave combined z-score class no change with or without drug; viability z-score with doxorubicin -1.24; viability z-score without drug -0.34; inactive.
Depletion of Esam [SID152332213] came out at: combined z-score class no change with or without drug; viability z-score with doxorubicin -1.01; viability z-score without drug 0.34; inactive.
Trim69 [SID152272051] gave combined z-score class no change with or without drug; viability z-score with doxorubicin -1.01; viability z-score without drug 0.51; inactive.
With knock-down of Ttyh2 [SID152283539], the screen gave combined z-score class no change with or without drug; viability z-score with doxorubicin -0.22; viability z-score without drug -0.34; inactive.
Knock-down of Shbg [SID152285529] resulted in: combined z-score class no change with or without drug; viability z-score with doxorubicin 0.22; viability z-score without drug 0.34; inactive.
Bsn [SID152307338] showed combined z-score class no change with or without drug; viability z-score with doxorubicin -0.45; viability z-score without drug -0.34; inactive.
Rps15a [SID152338316] scored combined z-score class low cell count with and without drug; viability z-score with doxorubicin -8.43; viability z-score without drug -7.93; inactive.
Silencing of Rtl8c [SID152325288] resulted in: combined z-score class no change with or without drug; viability z-score with doxorubicin 0.45; viability z-score without drug -0.17; inactive.
After knock-down of Or8c8 [SID152320261], the screen gave combined z-score class no change with or without drug; viability z-score with doxorubicin 0.11; viability z-score without drug 0; inactive.
Silencing of Rbpj [SID152306912] resulted in: combined z-score class no change with or without drug; viability z-score with doxorubicin -1.12; viability z-score without drug 0.34; inactive.
After knock-down of Irf9 [SID152327635], the screen gave combined z-score class no change with or without drug; viability z-score with doxorubicin 0.34; viability z-score without drug 0.67; inactive.
Apoc2 [SID152312970] gave combined z-score class no change with or without drug; viability z-score with doxorubicin -1.46; viability z-score without drug -0.67; inactive.
After knock-down of Armh3 [SID152281001], the screen gave combined z-score class no change with or without drug; viability z-score with doxorubicin -0.11; viability z-score without drug -0.51; inactive.
Tcf3 [SID152328110] showed combined z-score class no change with or without drug; viability z-score with doxorubicin -1.12; viability z-score without drug -1.52; inactive.
After knock-down of Rnf13 [SID152333731], the screen gave combined z-score class no change with or without drug; viability z-score with doxorubicin -0.34; viability z-score without drug -0.51; inactive.
With knock-down of Tbc1d24 [SID152274235], the record shows combined z-score class no change with or without drug; viability z-score with doxorubicin 0.34; viability z-score without drug 0.84; inactive.
After knock-down of Lmntd1 [SID152296480], the screen gave combined z-score class no change with or without drug; viability z-score with doxorubicin -0.22; viability z-score without drug 0.34; inactive.
Silencing of Or4c113 [SID152271997] came out at: combined z-score class no change with or without drug; viability z-score with doxorubicin 0.34; viability z-score without drug -1.01; inactive.
Knock-down of Stx2 [SID152267588] came out at: combined z-score class no change with or without drug; viability z-score with doxorubicin 1.12; viability z-score without drug 0.84; inactive.
With knock-down of Cybb [SID152273687], the record shows combined z-score class no change with or without drug; viability z-score with doxorubicin 0.22; viability z-score without drug -1.85; inactive.
